Laboratory results published in the supplement of paper PMC5949888.
Most values lie at the floor of the assay. Slopes are relative: functional sequences can read slightly below zero.

Each substance was assayed on Saccharomyces cerevisiae PS128 hsf1 delta, HSF1(1-493) fusion (assay: growth estimate (transactivation domain function in HSF1 fusion, heat-shock survival) (a.u. (slope of normalised read count over time)); higher = stronger growth at 37°C, i.e. more transactivation activity). Details: library: random library.
Method: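 Random 60-nt DNA library encoding peptides of up to 20 aa, fused to the C-terminus of yeast HSF1 residues 1-493 (C-terminal TAD deleted) and expressed from the native HSF1 promoter on a CEN plasmid in hsf1-deleted S. cerevisiae PS128. Cells were selected at 37°C on -trp 5-FOA plates for 0, 2, 4, 6 and 8 days and amplicons were sequenced. Growth estimate is the slope of a robust linear fit of total-sum-normalised read counts (normalised to the first time point) over time, using at least 2 replicates. Sequences are classed functional (TAD activity) above a threshold of -0.13, set from stop-codon control sequences.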
For FNIPRTYGNPPGSPSSEDYT, the growth estimate was under -0.25.
Substance FNPIITGIHGVPNCYCGGLT has a growth estimate of under -0.25.
For FNRYLL, the growth estimate was under -0.25.
FNSALVVRSSIALRAMAAVH was tested, and the growth estimate was under -0.25.
FNSTT showed a growth estimate of under -0.25.
Work on FPAGPLLHLLLMGIGGACKS yielded a growth estimate of under -0.25.
FPAGYYARARSNSSGEPRDC was tested, and the growth estimate was under -0.25.
In the case of FPCAFIRSVCKGSQVGCILE, the growth estimate is reported as under -0.25.
FPCDERC was tested, and the growth estimate was under -0.25.
Substance FPCG has a growth estimate of under -0.25.
Substance FPDRYVSFPART has a growth estimate of under -0.25.
FPDV was tested, and the growth estimate was under -0.25.
FPGCVVTSYESYTPKKLGQE gave a growth estimate of under -0.25.
In the case of FPGEEDVLEPGATDACCQTR, the growth estimate is reported as under -0.25.
In the case of FPINLYETNRLVNRWSDEVA, the growth estimate is reported as under -0.25.
For FPLHRESERDPAAWWARLST, the growth estimate was under -0.25.
For FPPYCTVAIDSGASTSICSM, the growth estimate was under -0.25.
FPQGSHPLAVYYWFRPARAV showed a growth estimate of under -0.25.
Work on FPQLT yielded a growth estimate of under -0.25.
FPQWVVESGL showed a growth estimate of under -0.25.
With FPRDGNIGK the growth estimate was under -0.25.
With FPRRQLFIVLVWTSVDMATP the growth estimate was under -0.25.
In the case of FPRSRCI, the growth estimate is reported as under -0.25.
Substance FPSFMYRLWKSRYMSVQLTV has a growth estimate of under -0.25.
Work on FPSPHTSMLLYPLRRHCGEQ yielded a growth estimate of under -0.25.
In the case of FPVRCDIQYVRRGSALRARM, the growth estimate is reported as under -0.25.
FPYMRLSCTARTIFSHLTKQ was tested, and the growth estimate was under -0.25.
FQCVQLKIQTPS showed a growth estimate of under -0.25.
For FQEPAWS, the growth estimate was 0.0112.
Work on FQFQFGYMCRVSD yielded a growth estimate of under -0.25.
For FQFT, the growth estimate was under -0.25.
With FQIAVGCSITARQRKL the growth estimate was under -0.25.
FQLGRPRRGTSRRCSLVLKL gave a growth estimate of under -0.25.
With FQLTWGDPGS the growth estimate was under -0.25.
In the case of FQNRIDGVYFFGSSKD, the growth estimate is reported as under -0.25.
FQPSPTTFGGLST gave a growth estimate of under -0.25.
Substance FQSHPVGWVKNEAQVNLTPG has a growth estimate of under -0.25.
In the case of FQTNEFIQRANISRDDRETP, the growth estimate is reported as under -0.25.
FQVNRRKALPVAVPVKGAIS gave a growth estimate of under -0.25.
Substance FQVRVSIPL has a growth estimate of under -0.25.
In the case of FQVVVERVHSAVRSPRSITP, the growth estimate is reported as under -0.25.
FRASLW showed a growth estimate of under -0.25.
FRASTYLRVYRGSFS was tested, and the growth estimate was under -0.25.
For FRDSNKGSGPGVVHIIVSGG, the growth estimate was under -0.25.
For FREKYDPLRAYGKPMVLLCN, the growth estimate was under -0.25.
FRESSMRSRSYAGVIVLTYV gave a growth estimate of under -0.25.
In the case of FRFYST, the growth estimate is reported as under -0.25.
For FRGG, the growth estimate was under -0.25.
Substance FRGHSVNWRERDDGWN has a growth estimate of under -0.25.
Substance FRGSAFLSEGPDPAPCSTGP has a growth estimate of under -0.25.
FRGVFGTQTAYSLRPDNTR gave a growth estimate of under -0.25.
For FRGVKFVGIAGTVRIFSPWA, the growth estimate was under -0.25.
FRHIIAERAI was tested, and the growth estimate was under -0.25.
Work on FRIAVARLAAQEGHYFAKFH yielded a growth estimate of under -0.25.
With FRIRHVRQISPIDPVVRS the growth estimate was under -0.25.
Substance FRIRVKSYGNWYSLLILLFV has a growth estimate of under -0.25.
Work on FRKNLLLLLRNWLPYAECRQ yielded a growth estimate of under -0.25.
For FRLDPRRLRGYYRPLAVGRH, the growth estimate was under -0.25.
For FRLFSERRLMCWKVYFGDRL, the growth estimate was under -0.25.
With FRLG the growth estimate was under -0.25.
Work on FRLK yielded a growth estimate of under -0.25.
Substance FRLRRKNNKESGVREVRSDP has a growth estimate of -0.245.
Substance FRLTGTYSSTSKDH has a growth estimate of under -0.25.
With FRMSRQMVLYTRVSFMRSGP the growth estimate was under -0.25.
In the case of FRPGPKFVWLYRTHRTAFST, the growth estimate is reported as -0.237.
With FRPP the growth estimate was under -0.25.
Substance FRQVSHVYSPAG has a growth estimate of under -0.25.
With FRRAFYADERTLGKGHKLNA the growth estimate was under -0.25.
With FRRV the growth estimate was under -0.25.
Work on FRSLVDLSHRSNLIAPMRIT yielded a growth estimate of under -0.25.
FRSRQDLGQLENARGQVDTA showed a growth estimate of under -0.25.
For FRSYDEVRRISRCGTVASGF, the growth estimate was under -0.25.
FRSYIGVARRNGSPRRERRA showed a growth estimate of under -0.25.
For FRTPWEVSRRFPRLFELITF, the growth estimate was under -0.25.
In the case of FRVCRR, the growth estimate is reported as under -0.25.
Work on FRVLEPSCRKNPLARYGRSL yielded a growth estimate of under -0.25.
Substance FRVSRVGAAVICTRYLHQAR has a growth estimate of under -0.25.
With FRVTAPRGNADESMDRITRL the growth estimate was under -0.25.
FRVVRYLYNTATNERHPQQP was tested, and the growth estimate was under -0.25.
FRVWRNDCREFLWRVSGDDI was tested, and the growth estimate was under -0.25.
Substance FRWEFKSGGEVVDTFPHALH has a growth estimate of under -0.25.
Substance FRWRYRVIESLRTLVPGD has a growth estimate of under -0.25.
Work on FSDQRESPSWEQVLPASSGE yielded a growth estimate of under -0.25.
For FSGENKRVPCR, the growth estimate was under -0.25.
In the case of FSGG, the growth estimate is reported as -0.182.
With FSGSGRYLHYAISEAGRGPP the growth estimate was under -0.25.
FSLASAGNEGTCMY was tested, and the growth estimate was under -0.25.
Work on FSLECS yielded a growth estimate of under -0.25.
FSLLLMGPQSSARADRDVEA gave a growth estimate of under -0.25.
FSPDIHVIAGARLGLSSPEE showed a growth estimate of under -0.25.
In the case of FSQLAPESSELNHGK, the growth estimate is reported as under -0.25.
In the case of FSQSTLEGLIKVLPLQDPAG, the growth estimate is reported as under -0.25.
For FSRYGRKLGVLVLSKNTWVA, the growth estimate was under -0.25.
Substance FSSA has a growth estimate of under -0.25.
For FSSGKWGLCRRHGFSRMVCS, the growth estimate was under -0.25.
For FSSRKFALLQNN, the growth estimate was under -0.25.
Substance FSSVY has a growth estimate of under -0.25.
With FSTRVTVSGFQILTAIRVW the growth estimate was under -0.25.
Work on FSTVTLTNRSPQSKPTFETA yielded a growth estimate of under -0.25.
For FSV, the growth estimate was under -0.25.
Substance FSVDATRPSQC has a growth estimate of under -0.25.
With FSVIIDHKQNPLLASGGPQQ the growth estimate was under -0.25.
FSYSGGQLARMNIRAQRPLG was tested, and the growth estimate was under -0.25.
In the case of FTASRG, the growth estimate is reported as under -0.25.
In the case of FTATEWQEVVLARPGGSVLA, the growth estimate is reported as under -0.25.
FTAVTTKLPRHIRRRTHRSK gave a growth estimate of under -0.25.
FTCNSGPGAHGIIIGIDCVC showed a growth estimate of under -0.25.
FTCPVRKLASRGQRELMFSE showed a growth estimate of under -0.25.
In the case of FTDRCLGRRAITVSSATLKP, the growth estimate is reported as under -0.25.
FTDRLKGRGFSRANVVKDFG was tested, and the growth estimate was under -0.25.
With FTFAHARKKG the growth estimate was under -0.25.
Substance FTFPKFPACAR has a growth estimate of under -0.25.
For FTGFTRDALDIIHLPIATHY, the growth estimate was -0.245.
Substance FTGQR has a growth estimate of under -0.25.
Substance FTGSSI has a growth estimate of under -0.25.
Work on FTIHEVGGTKI yielded a growth estimate of under -0.25.
Work on FTKAWGT yielded a growth estimate of under -0.25.
FTL was tested, and the growth estimate was -0.231.
FTMEYLGIAADLTVGHRK was tested, and the growth estimate was under -0.25.
FTPPGERGGNYFLLVRLTKG gave a growth estimate of under -0.25.
For FTPTRTRLRVV, the growth estimate was under -0.25.
In the case of FTRDRGGRS, the growth estimate is reported as under -0.25.
In the case of FTRGHGERAGRHLASPRNDT, the growth estimate is reported as under -0.25.
In the case of FTRQDQQT, the growth estimate is reported as under -0.25.
Work on FTSLGPRSCVWRNFPPGGHS yielded a growth estimate of under -0.25.
For FTTAFCA, the growth estimate was under -0.25.
In the case of FTTAVERRVSLSNP, the growth estimate is reported as under -0.25.
Substance FTTCTMIVSRGLQRQ has a growth estimate of under -0.25.
Work on FTTVRRVRSVESEDC yielded a growth estimate of under -0.25.
With FTVKRRRLLTK the growth estimate was under -0.25.
With FTWDG the growth estimate was under -0.25.
FVCHV showed a growth estimate of under -0.25.
FVCYCPGWPRRLGCTYPCGT gave a growth estimate of under -0.25.
FVEYP was tested, and the growth estimate was under -0.25.
For FVGTWAGPRPIVEPSICSDC, the growth estimate was under -0.25.
Work on FVHSYL yielded a growth estimate of under -0.25.
FVISNRENLCPQG showed a growth estimate of under -0.25.
FVKCGAFSL was tested, and the growth estimate was under -0.25.
In the case of FVLAIVFWVATGSVNRDTFY, the growth estimate is reported as under -0.25.
FVLGYLRAGLPAPTSSACDA gave a growth estimate of under -0.25.
FVPSGGHLAYDYVGGPSRNP showed a growth estimate of under -0.25.
For FVRGCKENDRPGVTYITKHG, the growth estimate was under -0.25.
FVRGRTLHC was tested, and the growth estimate was under -0.25.
With FVRSNGSSGWAHAQENGSLP the growth estimate was under -0.25.
